This assay concerns the target T1, beta-Dg (DAG1), β-dystroglycan, mouse (mouse (endogenous in tibialis anterior muscle)) (UniProt Q62165).
T1 sequence: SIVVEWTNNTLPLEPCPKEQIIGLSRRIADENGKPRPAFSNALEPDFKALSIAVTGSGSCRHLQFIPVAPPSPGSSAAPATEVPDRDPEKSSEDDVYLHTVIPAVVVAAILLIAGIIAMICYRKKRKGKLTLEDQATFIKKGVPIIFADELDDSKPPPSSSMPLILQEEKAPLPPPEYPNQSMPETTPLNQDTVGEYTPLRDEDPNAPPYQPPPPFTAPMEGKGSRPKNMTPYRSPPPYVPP
Briefly: co-IP; β-dystroglycan antibody (MANDAG2, clone 7D11) added to whole-cell extracts of mouse tibialis anterior muscle overnight at 4 °C, protein A/G agarose; washes with buffers up to 500 mM NaCl, 0.1% SDS, 0.1% Triton; control mouse IgG; immunoblot with Kibra antibody.

Amino acid sequences for entries named in this document (tags omitted).
UniProt Q5SXA9: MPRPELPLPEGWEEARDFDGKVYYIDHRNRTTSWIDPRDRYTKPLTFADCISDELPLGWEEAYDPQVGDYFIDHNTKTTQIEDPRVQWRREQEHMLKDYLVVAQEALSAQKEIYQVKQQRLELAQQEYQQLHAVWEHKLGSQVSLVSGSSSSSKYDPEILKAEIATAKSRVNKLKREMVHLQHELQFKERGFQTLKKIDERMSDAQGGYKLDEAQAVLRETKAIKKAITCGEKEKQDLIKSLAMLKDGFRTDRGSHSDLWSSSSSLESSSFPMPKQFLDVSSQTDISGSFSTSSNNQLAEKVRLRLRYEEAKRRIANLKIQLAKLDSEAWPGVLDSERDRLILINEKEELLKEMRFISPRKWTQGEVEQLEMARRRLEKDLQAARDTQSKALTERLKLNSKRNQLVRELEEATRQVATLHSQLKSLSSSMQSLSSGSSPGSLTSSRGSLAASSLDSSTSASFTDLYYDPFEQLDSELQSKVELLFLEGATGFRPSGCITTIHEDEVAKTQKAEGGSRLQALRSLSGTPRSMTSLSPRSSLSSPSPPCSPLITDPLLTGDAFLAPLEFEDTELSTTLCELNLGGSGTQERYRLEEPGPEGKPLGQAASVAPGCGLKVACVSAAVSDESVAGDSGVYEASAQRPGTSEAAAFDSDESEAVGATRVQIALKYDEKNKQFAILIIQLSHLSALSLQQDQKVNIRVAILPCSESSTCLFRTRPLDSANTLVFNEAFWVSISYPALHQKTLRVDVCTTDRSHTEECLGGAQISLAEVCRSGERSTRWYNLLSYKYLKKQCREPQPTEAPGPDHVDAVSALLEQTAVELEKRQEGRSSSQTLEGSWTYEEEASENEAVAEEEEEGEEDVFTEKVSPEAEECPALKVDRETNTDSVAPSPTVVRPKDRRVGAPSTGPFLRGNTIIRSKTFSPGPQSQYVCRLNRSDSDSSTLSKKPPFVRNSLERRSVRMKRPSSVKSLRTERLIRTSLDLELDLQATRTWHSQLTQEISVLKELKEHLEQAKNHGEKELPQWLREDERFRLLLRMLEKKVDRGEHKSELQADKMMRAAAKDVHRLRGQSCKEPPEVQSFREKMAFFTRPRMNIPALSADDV

These are yes or no findings as the source states them, for the method shown. In cells and extracts the contact can be indirect. Some results given as binding are weak or reduced against the parent protein; the word gives no strength.

With “Kibra (Kbr), mouse (from UniProt Q5SXA9 1-1104)”, the binding result is recorded as “binds”.
